Laboratory results: PubChem BioAssay AID1259254 (NCATS, 2017)
In all, the deposit lists about 59,000 reagents; shown is an unselected part. About 1,550 of them (2.6%) were called active. 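G2 share is only a proxy for re-replication; each gene was hit by three separate siRNAs, and active genes were retested.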 Raw values are not corrected between plates. The numbers tell different reagents against one gene apart. Not stated in the record: the amount of reagent.

Aim: 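Genome-wide screen for genes that prevent DNA re-replication in cancer cells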 (primary screen)
Cells: human HCT116 colorectal cancer cells
Knock-down reagent: single siRNA against human genes
Timing: 3 days
Detection: 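Imaged Hoechst DNA stain sorts each cell into a cycle phase by DNA amount; per plate, G2 fraction set to 0% for non-targeting and 100% for GMNN siRNA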
Reading the numbers: G2 robust z-score and G2 cells, % of GMNN control: higher = more G2 cells, more excess DNA replication; raw share of cells in G2: higher = larger share of cells with G2 DNA content
Hit rule: 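Active siRNAs have a G2 robust z of 5 or more median absolute deviations over the median, which in these data means about 38% or higher of GMNN control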

Gene | reagent no. | G2 robust z-score | G2 cells, % of GMNN control | raw share of cells in G2 (%) | Outcome
ANO5 (GeneID 203859) | 1 | 0.449 | 6.12 | 5.8 | inactive
ANO5 (GeneID 203859) | 2 | -0.402 | 0.14 | 3.18 | inactive
ANO5 (GeneID 203859) | 3 | 0.16 | 4.1 | 4.5 | inactive
PRKACG (GeneID 5568) | 1 | 0.397 | 5.76 | 7.51 | inactive
PRKACG (GeneID 5568) | 2 | -0.7 | -1.96 | 4.75 | inactive
PRKACG (GeneID 5568) | 3 | 4.73 | 36.2 | 16.8 | inactive
NEK2 (GeneID 4751) | 1 | -0.0855 | 2.37 | 6.39 | inactive
NEK2 (GeneID 4751) | 2 | 0.603 | 7.21 | 7.84 | inactive
NEK2 (GeneID 4751) | 3 | -0.638 | -1.52 | 3.49 | inactive
PLA1A (GeneID 51365) | 1 | -0.645 | -1.57 | 3.66 | inactive
PLA1A (GeneID 51365) | 2 | -0.0347 | 2.72 | 4.84 | inactive
PLA1A (GeneID 51365) | 3 | -0.656 | -1.65 | 5.21 | inactive
GNAZ (GeneID 2781) | 1 | 0.462 | 6.22 | 7.5 | inactive
GNAZ (GeneID 2781) | 2 | -0.865 | -3.12 | 4.08 | inactive
GNAZ (GeneID 2781) | 3 | -0.524 | -0.717 | 3.4 | inactive
IMPG2 (GeneID 50939) | 1 | -0.869 | -3.15 | 2.65 | inactive
IMPG2 (GeneID 50939) | 2 | -0.57 | -1.04 | 4.15 | inactive
IMPG2 (GeneID 50939) | 3 | -0.981 | -3.93 | 2.01 | inactive
KIF25 (GeneID 3834) | 1 | 4.29 | 33.1 | 17.1 | inactive
KIF25 (GeneID 3834) | 2 | 1.16 | 11.1 | 9.91 | inactive
KIF25 (GeneID 3834) | 3 | -0.862 | -3.1 | 3.07 | inactive
BRD1 (GeneID 23774) | 1 | -0.16 | 1.84 | 4.8 | inactive
BRD1 (GeneID 23774) | 2 | -1.09 | -4.69 | 2.45 | inactive
BRD1 (GeneID 23774) | 3 | -0.208 | 1.5 | 6.85 | inactive
C1QTNF4 (GeneID 114900) | 1 | 0.95 | 9.65 | 6.21 | inactive
C1QTNF4 (GeneID 114900) | 2 | -0.377 | 0.314 | 1.91 | inactive
C1QTNF4 (GeneID 114900) | 3 | 1.62 | 14.4 | 9.86 | inactive
FBL (GeneID 2091) | 1 | 2.01 | 17.1 | 11.5 | inactive
FBL (GeneID 2091) | 2 | 6.9 | 51.5 | 24.9 | active
FBL (GeneID 2091) | 3 | -1.02 | -4.2 | 2.16 | inactive
TNNI1 (GeneID 7135) | 1 | -1.12 | -4.91 | 2.96 | inactive
TNNI1 (GeneID 7135) | 2 | 0.0248 | 3.14 | 5.14 | inactive
TNNI1 (GeneID 7135) | 3 | -0.213 | 1.47 | 3.87 | inactive
C1orf50 (GeneID 79078) | 1 | -0.82 | -2.8 | 3.36 | inactive
C1orf50 (GeneID 79078) | 2 | -0.376 | 0.32 | 4.75 | inactive
C1orf50 (GeneID 79078) | 3 | 0.656 | 7.58 | 4.7 | inactive
SELENOK (GeneID 58515) | 1 | 0.00343 | 2.99 | 5.53 | inactive
SELENOK (GeneID 58515) | 2 | 0.873 | 9.11 | 8.81 | inactive
SELENOK (GeneID 58515) | 3 | -1.18 | -5.3 | 1.35 | inactive

Targets listed so far whose gene name begins with A or a:
Gene | reagent no. | G2 robust z-score | G2 cells, % of GMNN control | raw share of cells in G2 (%) | Outcome
ANO5 (GeneID 203859) | 1 | 0.449 | 6.12 | 5.8 | inactive
ANO5 (GeneID 203859) | 2 | -0.402 | 0.14 | 3.18 | inactive
ANO5 (GeneID 203859) | 3 | 0.16 | 4.1 | 4.5 | inactive

The list goes on:
Gene | reagent no. | G2 robust z-score | G2 cells, % of GMNN control | raw share of cells in G2 (%) | Outcome
MAN2A1 (GeneID 4124) | 1 | -1.1 | -4.8 | 3.5 | inactive
MAN2A1 (GeneID 4124) | 2 | -0.894 | -3.32 | 2.1 | inactive
MAN2A1 (GeneID 4124) | 3 | 3.71 | 29.1 | 17 | inactive
NCKIPSD (GeneID 51517) | 1 | -1.62 | -8.44 | 0.582 | inactive
NCKIPSD (GeneID 51517) | 2 | -1.04 | -4.32 | 2.45 | inactive
NCKIPSD (GeneID 51517) | 3 | 2.41 | 19.9 | 9.78 | inactive
PEX7 (GeneID 5191) | 1 | -0.313 | 0.762 | 5.3 | inactive
PEX7 (GeneID 5191) | 2 | 4.09 | 31.7 | 16.7 | inactive
PEX7 (GeneID 5191) | 3 | -0.459 | -0.261 | 3.26 | inactive
CRABP1 (GeneID 1381) | 1 | -0.501 | -0.561 | 4.79 | inactive
CRABP1 (GeneID 1381) | 2 | 1.7 | 14.9 | 9.23 | inactive
CRABP1 (GeneID 1381) | 3 | -0.709 | -2.02 | 4.24 | inactive
F8 (GeneID 2157) | 1 | 2.4 | 19.9 | 12.5 | inactive
F8 (GeneID 2157) | 2 | -0.257 | 1.16 | 5.32 | inactive
F8 (GeneID 2157) | 3 | -0.0529 | 2.6 | 4.88 | inactive
DBF4 (GeneID 10926) | 1 | 0.299 | 5.07 | 5.48 | inactive
DBF4 (GeneID 10926) | 2 | -1.31 | -6.24 | 4.02 | inactive
DBF4 (GeneID 10926) | 3 | 0.611 | 7.26 | 8.85 | inactive
MAP2K3 (GeneID 5606) | 1 | 1.6 | 14.2 | 10.3 | inactive
MAP2K3 (GeneID 5606) | 2 | -0.0211 | 2.82 | 6.36 | inactive
MAP2K3 (GeneID 5606) | 3 | -0.547 | -0.88 | 3.71 | inactive
OR51F1 (GeneID 256892) | 1 | 0.666 | 7.65 | 5.64 | inactive
OR51F1 (GeneID 256892) | 2 | -0.38 | 0.294 | 3.68 | inactive
OR51F1 (GeneID 256892) | 3 | -0.81 | -2.73 | 2.19 | inactive
MOCS3 (GeneID 27304) | 1 | 7.15 | 53.3 | 21.4 | active
MOCS3 (GeneID 27304) | 2 | 0.36 | 5.5 | 6.01 | inactive
MOCS3 (GeneID 27304) | 3 | -0.668 | -1.73 | 5.38 | inactive
MYL10 (GeneID 93408) | 1 | -1.05 | -4.4 | 3.63 | inactive
MYL10 (GeneID 93408) | 2 | -1.22 | -5.59 | 2.57 | inactive
MYL10 (GeneID 93408) | 3 | -0.49 | -0.477 | 4.3 | inactive
